Data published in the supplement of paper PMC11732987, “Enantioselective OTUD7B fragment discovery through chemoproteomics screening and high-throughput optimisation” (Communications Chemistry, 2025).
The list shows a part of the results. The data scatter; read single values as rough.

Chains of the proteins cited; added tags and fusions are not shown. Lines headed by an entry give the natural chain unless they say otherwise; changes in a name come on top. Residues count along the entry.
UniProt Q9NU22: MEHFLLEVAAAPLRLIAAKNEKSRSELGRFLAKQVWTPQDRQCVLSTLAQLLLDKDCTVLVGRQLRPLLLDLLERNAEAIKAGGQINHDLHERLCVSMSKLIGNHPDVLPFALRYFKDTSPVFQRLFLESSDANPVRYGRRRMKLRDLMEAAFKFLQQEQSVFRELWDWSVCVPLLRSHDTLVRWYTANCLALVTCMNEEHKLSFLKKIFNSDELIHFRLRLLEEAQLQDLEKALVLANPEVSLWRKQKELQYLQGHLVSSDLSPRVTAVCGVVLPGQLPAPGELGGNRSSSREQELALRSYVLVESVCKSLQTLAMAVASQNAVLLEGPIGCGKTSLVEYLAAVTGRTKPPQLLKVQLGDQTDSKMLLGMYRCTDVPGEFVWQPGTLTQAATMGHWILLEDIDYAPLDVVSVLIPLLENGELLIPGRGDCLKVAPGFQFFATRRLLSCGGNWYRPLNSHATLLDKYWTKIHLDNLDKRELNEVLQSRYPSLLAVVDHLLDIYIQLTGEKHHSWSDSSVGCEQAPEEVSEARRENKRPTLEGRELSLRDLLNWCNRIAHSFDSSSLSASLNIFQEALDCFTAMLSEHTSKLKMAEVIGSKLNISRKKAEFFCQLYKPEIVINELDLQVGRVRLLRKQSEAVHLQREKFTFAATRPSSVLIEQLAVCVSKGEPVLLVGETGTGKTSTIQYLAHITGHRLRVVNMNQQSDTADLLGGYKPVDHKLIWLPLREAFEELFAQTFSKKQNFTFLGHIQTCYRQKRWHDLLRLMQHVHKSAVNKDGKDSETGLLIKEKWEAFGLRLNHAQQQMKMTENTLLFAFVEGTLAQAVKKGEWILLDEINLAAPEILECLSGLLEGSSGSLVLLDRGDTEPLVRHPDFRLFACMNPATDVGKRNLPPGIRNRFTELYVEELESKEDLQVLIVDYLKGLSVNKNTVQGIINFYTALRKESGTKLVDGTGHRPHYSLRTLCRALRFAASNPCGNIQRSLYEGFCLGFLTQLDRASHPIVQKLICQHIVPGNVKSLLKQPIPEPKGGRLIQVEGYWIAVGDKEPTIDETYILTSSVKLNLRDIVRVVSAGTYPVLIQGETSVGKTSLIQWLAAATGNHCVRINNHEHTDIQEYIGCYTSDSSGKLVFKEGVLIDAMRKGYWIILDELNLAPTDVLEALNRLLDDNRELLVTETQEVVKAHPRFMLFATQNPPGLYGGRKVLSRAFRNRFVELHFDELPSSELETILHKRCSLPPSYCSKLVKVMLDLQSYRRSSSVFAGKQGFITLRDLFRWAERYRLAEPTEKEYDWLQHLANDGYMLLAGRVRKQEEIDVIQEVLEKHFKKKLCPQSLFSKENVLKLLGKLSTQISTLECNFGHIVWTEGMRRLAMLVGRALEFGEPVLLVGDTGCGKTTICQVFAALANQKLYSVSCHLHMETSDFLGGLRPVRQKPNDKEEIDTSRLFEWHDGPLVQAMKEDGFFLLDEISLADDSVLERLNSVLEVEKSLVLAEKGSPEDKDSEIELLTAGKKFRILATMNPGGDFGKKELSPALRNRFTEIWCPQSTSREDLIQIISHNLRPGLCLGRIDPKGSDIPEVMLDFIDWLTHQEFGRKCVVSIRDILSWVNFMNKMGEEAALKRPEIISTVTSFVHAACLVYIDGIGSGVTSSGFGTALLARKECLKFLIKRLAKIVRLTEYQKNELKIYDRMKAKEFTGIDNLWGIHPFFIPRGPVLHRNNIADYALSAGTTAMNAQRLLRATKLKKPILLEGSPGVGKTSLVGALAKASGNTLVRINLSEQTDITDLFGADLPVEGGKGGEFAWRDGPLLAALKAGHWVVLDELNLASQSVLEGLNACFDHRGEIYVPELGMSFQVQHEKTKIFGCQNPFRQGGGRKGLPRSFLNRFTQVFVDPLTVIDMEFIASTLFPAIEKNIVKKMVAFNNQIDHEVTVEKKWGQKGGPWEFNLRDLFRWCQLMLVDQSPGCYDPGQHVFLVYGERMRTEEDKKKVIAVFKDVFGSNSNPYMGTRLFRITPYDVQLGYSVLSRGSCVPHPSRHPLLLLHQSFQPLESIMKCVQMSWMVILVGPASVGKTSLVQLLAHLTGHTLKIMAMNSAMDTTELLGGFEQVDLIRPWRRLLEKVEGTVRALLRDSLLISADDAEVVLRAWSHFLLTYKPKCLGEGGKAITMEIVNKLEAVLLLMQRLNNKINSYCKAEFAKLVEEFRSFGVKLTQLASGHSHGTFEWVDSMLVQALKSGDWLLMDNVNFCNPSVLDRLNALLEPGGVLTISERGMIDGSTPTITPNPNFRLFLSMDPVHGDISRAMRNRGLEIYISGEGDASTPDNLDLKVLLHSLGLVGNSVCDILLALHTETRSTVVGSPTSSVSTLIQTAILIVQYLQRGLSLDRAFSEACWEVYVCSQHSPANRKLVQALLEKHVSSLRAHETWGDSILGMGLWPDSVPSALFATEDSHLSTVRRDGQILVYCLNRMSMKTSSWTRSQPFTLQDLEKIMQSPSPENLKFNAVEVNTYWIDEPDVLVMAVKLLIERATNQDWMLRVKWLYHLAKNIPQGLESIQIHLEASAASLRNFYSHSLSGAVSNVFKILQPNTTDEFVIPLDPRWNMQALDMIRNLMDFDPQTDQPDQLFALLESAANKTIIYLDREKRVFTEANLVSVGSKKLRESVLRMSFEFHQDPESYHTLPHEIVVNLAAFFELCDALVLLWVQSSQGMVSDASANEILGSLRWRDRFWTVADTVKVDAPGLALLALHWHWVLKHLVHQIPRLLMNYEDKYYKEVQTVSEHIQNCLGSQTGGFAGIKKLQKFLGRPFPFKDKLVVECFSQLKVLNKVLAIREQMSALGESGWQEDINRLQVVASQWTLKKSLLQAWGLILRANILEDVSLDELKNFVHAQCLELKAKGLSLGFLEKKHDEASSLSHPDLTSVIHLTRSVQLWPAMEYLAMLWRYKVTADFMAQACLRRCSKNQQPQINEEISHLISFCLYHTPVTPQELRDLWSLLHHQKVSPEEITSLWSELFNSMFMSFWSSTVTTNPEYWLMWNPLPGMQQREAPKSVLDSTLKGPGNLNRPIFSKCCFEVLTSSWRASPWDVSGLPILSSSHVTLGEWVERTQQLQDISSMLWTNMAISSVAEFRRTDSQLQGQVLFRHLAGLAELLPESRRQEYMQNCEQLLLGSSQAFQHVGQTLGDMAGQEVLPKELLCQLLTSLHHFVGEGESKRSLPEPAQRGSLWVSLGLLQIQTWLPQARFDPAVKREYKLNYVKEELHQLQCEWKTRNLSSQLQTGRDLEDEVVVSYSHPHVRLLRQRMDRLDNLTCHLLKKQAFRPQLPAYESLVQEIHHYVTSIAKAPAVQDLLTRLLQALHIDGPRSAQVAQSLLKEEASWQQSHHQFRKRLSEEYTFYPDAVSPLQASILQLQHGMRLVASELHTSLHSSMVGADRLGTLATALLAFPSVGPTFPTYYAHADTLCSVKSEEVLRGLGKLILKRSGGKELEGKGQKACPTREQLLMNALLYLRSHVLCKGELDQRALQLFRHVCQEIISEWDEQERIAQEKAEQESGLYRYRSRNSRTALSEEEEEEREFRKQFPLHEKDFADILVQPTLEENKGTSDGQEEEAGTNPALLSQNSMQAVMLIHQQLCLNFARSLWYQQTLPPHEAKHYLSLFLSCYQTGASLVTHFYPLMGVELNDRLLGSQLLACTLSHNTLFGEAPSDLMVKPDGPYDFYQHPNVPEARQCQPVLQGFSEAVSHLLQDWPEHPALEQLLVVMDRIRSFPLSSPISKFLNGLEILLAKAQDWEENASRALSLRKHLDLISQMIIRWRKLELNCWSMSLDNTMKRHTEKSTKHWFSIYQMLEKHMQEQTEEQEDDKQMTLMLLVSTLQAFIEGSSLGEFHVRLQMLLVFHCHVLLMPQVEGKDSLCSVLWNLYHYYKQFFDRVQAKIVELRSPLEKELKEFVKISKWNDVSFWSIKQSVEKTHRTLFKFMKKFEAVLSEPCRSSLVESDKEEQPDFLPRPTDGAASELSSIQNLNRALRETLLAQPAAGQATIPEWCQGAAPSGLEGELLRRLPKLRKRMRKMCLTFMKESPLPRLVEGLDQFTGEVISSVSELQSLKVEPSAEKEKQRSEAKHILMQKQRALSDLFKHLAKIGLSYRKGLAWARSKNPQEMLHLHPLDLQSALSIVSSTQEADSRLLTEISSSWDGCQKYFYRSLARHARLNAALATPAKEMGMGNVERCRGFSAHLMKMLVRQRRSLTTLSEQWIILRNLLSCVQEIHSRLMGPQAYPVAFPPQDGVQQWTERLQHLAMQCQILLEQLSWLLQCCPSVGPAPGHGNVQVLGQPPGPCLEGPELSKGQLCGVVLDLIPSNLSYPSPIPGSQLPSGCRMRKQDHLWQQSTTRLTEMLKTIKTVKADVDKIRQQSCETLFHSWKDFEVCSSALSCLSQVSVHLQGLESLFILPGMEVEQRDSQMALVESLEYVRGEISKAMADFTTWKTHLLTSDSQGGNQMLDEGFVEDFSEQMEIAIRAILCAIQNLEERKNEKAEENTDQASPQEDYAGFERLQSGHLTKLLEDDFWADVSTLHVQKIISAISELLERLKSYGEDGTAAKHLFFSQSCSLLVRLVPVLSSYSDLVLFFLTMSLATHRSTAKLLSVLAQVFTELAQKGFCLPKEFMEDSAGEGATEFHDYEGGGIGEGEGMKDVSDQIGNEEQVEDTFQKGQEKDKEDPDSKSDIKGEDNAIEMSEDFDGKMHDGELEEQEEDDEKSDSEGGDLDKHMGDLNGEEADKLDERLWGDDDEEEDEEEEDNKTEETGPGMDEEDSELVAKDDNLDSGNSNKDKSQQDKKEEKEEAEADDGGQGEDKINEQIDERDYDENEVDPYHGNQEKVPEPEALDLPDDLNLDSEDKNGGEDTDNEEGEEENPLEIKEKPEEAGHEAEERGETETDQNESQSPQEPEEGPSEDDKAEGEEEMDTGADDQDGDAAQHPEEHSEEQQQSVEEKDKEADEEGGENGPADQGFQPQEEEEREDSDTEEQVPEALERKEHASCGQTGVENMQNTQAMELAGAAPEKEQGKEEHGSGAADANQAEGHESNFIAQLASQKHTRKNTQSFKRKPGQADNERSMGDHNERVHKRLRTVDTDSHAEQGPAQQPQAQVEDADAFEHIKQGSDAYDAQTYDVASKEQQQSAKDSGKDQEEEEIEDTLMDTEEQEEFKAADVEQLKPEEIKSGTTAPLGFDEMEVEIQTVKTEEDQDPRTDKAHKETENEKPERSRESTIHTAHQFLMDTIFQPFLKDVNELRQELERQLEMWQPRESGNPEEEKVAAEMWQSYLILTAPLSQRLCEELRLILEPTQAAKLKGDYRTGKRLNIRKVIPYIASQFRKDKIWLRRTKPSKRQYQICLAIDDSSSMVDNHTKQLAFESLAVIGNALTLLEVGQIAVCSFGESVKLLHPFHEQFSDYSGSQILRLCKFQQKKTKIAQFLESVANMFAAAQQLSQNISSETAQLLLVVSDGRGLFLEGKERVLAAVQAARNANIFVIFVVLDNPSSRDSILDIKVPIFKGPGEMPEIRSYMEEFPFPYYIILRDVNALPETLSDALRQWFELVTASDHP
UniProt Q15648, 428-449: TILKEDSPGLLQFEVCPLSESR
UniProt P40926: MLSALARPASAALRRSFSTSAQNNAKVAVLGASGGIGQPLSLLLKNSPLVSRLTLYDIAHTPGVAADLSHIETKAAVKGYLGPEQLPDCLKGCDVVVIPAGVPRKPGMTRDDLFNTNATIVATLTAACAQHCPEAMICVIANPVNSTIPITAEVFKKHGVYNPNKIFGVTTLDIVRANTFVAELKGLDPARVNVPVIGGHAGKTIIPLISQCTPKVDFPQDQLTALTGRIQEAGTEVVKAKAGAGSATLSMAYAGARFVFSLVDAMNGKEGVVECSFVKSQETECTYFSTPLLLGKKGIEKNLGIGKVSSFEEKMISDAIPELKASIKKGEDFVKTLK
UniProt Q7L2J0, 234-257: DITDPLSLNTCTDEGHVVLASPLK
UniProt P46013, 765-786: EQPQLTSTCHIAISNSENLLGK
UniProt Q14149, 445-464: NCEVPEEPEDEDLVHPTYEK
UniProt O60291: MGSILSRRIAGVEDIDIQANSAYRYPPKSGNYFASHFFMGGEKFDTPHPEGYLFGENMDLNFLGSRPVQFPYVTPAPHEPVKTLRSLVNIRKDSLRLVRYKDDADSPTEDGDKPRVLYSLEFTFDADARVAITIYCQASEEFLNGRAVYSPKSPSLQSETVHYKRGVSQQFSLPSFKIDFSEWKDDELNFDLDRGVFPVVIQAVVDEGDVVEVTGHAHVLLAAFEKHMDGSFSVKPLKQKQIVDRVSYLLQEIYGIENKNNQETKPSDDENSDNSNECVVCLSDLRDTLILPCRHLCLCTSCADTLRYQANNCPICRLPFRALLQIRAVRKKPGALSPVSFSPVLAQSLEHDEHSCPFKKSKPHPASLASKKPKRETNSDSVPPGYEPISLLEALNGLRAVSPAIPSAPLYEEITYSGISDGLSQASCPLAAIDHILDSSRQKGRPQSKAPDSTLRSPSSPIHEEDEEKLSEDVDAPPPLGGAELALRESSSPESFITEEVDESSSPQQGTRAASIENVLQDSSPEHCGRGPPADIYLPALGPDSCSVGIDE
UniProt Q02078, 95-114: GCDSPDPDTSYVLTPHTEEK

How the values were obtained:
[1] = compound: ClCC(=O)N[C@@H]1CCCc2ccccc12; assay: log2 mean competition ratio of IA-DTB cysteine labelling (DMSO/compound) (log2 ratio); higher = stronger cysteine engagement by compound; details: treatment time: 4 h, cell line lysate: HEK293T
Description: (§1)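 IA-DTB competitive cysteine chemoproteomics in HEK293T RIPA lysate. Lysates were treated with compound 29 or 30 at 50 or 200 µM for 4 h, then IA-DTB (500 µM, 1 h), trypsin-digested, NeutrAvidin-enriched and analysed by diaPASEF. Competition ratio = intensity DMSO / intensity compound (n=4 treated, n=64 DMSO); binding: mean log2 CR ≥ 1 and p ≤ 0.05 plus QC filters. Target is the cysteine site.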

[2] = compound: ClCC(=O)N[C@H]1CCCc2ccccc12; assay: as above; details: treatment time: 4 h, cell line lysate: HEK293T
Description: as §1

Row | Target | log2 mean competition ratio ([1]; 50 µM) | log2 mean competition ratio ([1]; 200 µM) | log2 mean competition ratio ([2]; 50 µM) | log2 mean competition ratio ([2]; 200 µM)
1 | MMS19 C794 (UniProt Q96T76) | -0.0807 | 0.0327 | – | –
2 | MDN1 C979 (UniProt Q9NU22) | 0.218 | -0.00679 | – | –
3 | MDN1 C4517 (UniProt Q9NU22) | -0.0886 | -0.078 | – | –
4 | METTL16 C253 (UniProt Q86W50) | 0.395 | 0.5 | – | –
5 | MMAB_(C119,C119,C132,C132) (UniProt Q96EY8) | 0.23 | -0.219 | – | –
6 | MED1 C443 (UniProt Q15648) | -0.0272 | 0.531 | – | –
7 | MINDY1 C115 (UniProt Q8N5J2) | 0.244 | 0.201 | – | –
8 | MINDY3 C27 (UniProt Q9H8M7) | 0.0666 | -0.122 | – | –
9 | MEMO1 C88 (UniProt Q9Y316) | -0.328 | 0.0424 | – | –
10 | METTL8 C146 (UniProt Q9H825) | -0.169 | -0.0697 | – | –
11 | MDH2 C93 (UniProt P40926) | -0.236 | 0.371 | – | –
12 | METTL17 C216 (UniProt Q9H7H0) | -0.0173 | -0.137 | – | –
13 | MIA3 C1513 (UniProt Q5JRA6) | 0.0124 | -0.0679 | – | –
14 | MIX23 C74 | 0.0972 | -0.187 | – | –
15 | MON2 C609 (UniProt Q7Z3U7) | -0.0505 | -0.0363 | – | –
16 | MPHOSPH8 C753 (UniProt Q99549) | 0.071 | -0.0927 | – | –
17 | MMS22L C121 (UniProt Q6ZRQ5) | 0.186 | 0.0119 | – | –
18 | MPP2 C334 | -0.162 | -0.00277 | – | –
19 | MEPCE C54 (UniProt Q7L2J0) | 0.0176 | -0.114 | – | –
20 | MON2 C75 (UniProt Q7Z3U7) | -0.0869 | -0.225 | – | –
21 | MID1 C375 (UniProt O15344) | 0.081 | -0.359 | – | –
22 | MLLT3 C5 | 0.198 | -0.474 | – | –
23 | MED23 C222 (UniProt Q9ULK4) | -0.0147 | 0.163 | – | –
24 | MED12 C83 (UniProt Q93074) | -0.0959 | 0.00504 | – | –

3 entries from above, as tab-separated lines.
Row	Target	log2 mean competition ratio ([1]; 50 µM)	log2 mean competition ratio ([1]; 200 µM)	log2 mean competition ratio ([2]; 50 µM)	log2 mean competition ratio ([2]; 200 µM)
2	MDN1 C979 (UniProt Q9NU22)	0.218	-0.00679	–	–
11	MDH2 C93 (UniProt P40926)	-0.236	0.371	–	–
17	MMS22L C121 (UniProt Q6ZRQ5)	0.186	0.0119	–	–

Next results.

Row | Target | log2 mean competition ratio ([1]; 50 µM) | log2 mean competition ratio ([1]; 200 µM) | log2 mean competition ratio ([2]; 50 µM) | log2 mean competition ratio ([2]; 200 µM)
25 | MMACHC C149 (UniProt Q9Y4U1) | 0.107 | -0.422 | – | –
26 | MKI67 C773 (UniProt P46013) | -0.0246 | 0.0637 | – | –
27 | MDN1 C2158 (UniProt Q9NU22) | -0.0337 | 0.0724 | – | –
28 | MDN1 C1011 (UniProt Q9NU22) | 0.266 | -0.225 | – | –
29 | MPST C65 (UniProt P25325) | -0.552 | -0.984 | – | –
30 | MED1 C501 (UniProt Q15648) | 0.107 | 0.0212 | – | –
31 | MED20 C120 (UniProt Q9H944) | 0.711 | 0.339 | – | –
32 | MEPCE C419 (UniProt Q7L2J0) | 0.397 | 0.111 | – | –
33 | MMAA C184 (UniProt Q8IVH4) | -0.14 | 0.0193 | – | –
34 | MET C1210 (UniProt P08581) | -0.0984 | 0.241 | – | –
35 | MPP2 C468 | -0.287 | 0.0781 | – | –
36 | MDN1 C1867 (UniProt Q9NU22) | -0.0249 | 0.152 | – | –
37 | MED7 C223 (UniProt O43513) | -0.0777 | 0.187 | – | –
38 | MPP7 C462 (UniProt Q5T2T1) | 0.425 | 0.0192 | -0.47 | -0.519
39 | MECP2 C429 (UniProt P51608) | -0.152 | -0.116 | -0.057 | 0.0286
40 | MORC3 C446 (UniProt Q14149) | -0.403 | 0.0789 | -0.105 | -0.0518
41 | MPZL1 C203 (UniProt O95297) | -0.108 | -0.135 | 0.0836 | -0.0846
42 | MIF4GD C49 (UniProt A9UHW6) | -0.196 | 0.355 | – | –
43 | MKLN1 C582 (UniProt Q9UL63) | 0.24 | -0.0891 | – | –
44 | MEPCE C324 (UniProt Q7L2J0) | 0.00657 | 0.207 | – | –
45 | MIDEAS C16, A0A1C7CYX1 | 0.175 | 0.306 | – | –
46 | MMADHC C6 (UniProt Q9H3L0) | -0.0884 | 0.423 | 0.262 | –
47 | MED15 C588 (UniProt Q96RN5) | -0.0171 | 0.0591 | – | –
48 | MON2 C212 (UniProt Q7Z3U7) | 0.346 | 0.0304 | 0.617 | 0.0457

Row | Target | log2 mean competition ratio ([1]; 50 µM) | log2 mean competition ratio ([1]; 200 µM) | log2 mean competition ratio ([2]; 50 µM) | log2 mean competition ratio ([2]; 200 µM)
49 | MGRN1 C528 (UniProt O60291) | 0.0741 | -0.0854 | -0.0781 | 0.113
50 | MIOS C748 (UniProt Q9NXC5) | 0.219 | 0.0598 | – | –
51 | MPG C215 (UniProt P29372) | -0.0483 | 0.0249 | – | –
52 | MGA C1313 (UniProt Q8IWI9) | 0.0886 | 0.208 | – | –
53 | MDN1 C1394 (UniProt Q9NU22) | -0.134 | -0.238 | -0.106 | 0.0283
54 | MID2 C630 | 0.0768 | -0.0127 | 0.0922 | -0.0946
55 | MEF2A C96 (UniProt Q02078) | -0.34 | 0.372 | – | –
56 | MORC3 C435 (UniProt Q14149) | 0.0402 | -0.186 | – | –
57 | MEPCE C244 (UniProt Q7L2J0) | 0.0576 | -0.267 | – | –
58 | MRM2 C79 (UniProt Q9UI43) | 0.136 | 0.0688 | – | –
59 | MIEF2 C367 | -0.0414 | 0.133 | – | -0.0757
60 | MELK C413 (UniProt Q14680) | -0.154 | -0.0191 | – | –
61 | MIEF1 C359 | -0.083 | 0.382 | -0.0631 | 0.404
62 | MECR C263 (UniProt Q9BV79) | 0.109 | 0.0499 | – | –
63 | MIGA1 C150 | 0.248 | 0.52 | – | –
64 | MFSD3 C346 | 0.628 | -0.0581 | – | -0.0708
65 | MED28 C93 (UniProt Q9H204) | 0.181 | -0.124 | – | –
66 | MOCS3 C412 (UniProt O95396) | 0.503 | 0.241 | – | –
67 | MOCS2 C10 | -0.00443 | -0.414 | – | –
68 | MED1 C489 (UniProt Q15648) | -0.143 | -0.194 | – | –
69 | MIS18A C231 (UniProt Q9NYP9) | 0.0736 | 0.169 | – | –
70 | MED23 C1090 (UniProt Q9ULK4) | 0.0378 | -0.0466 | – | –
71 | MED13 C1274 (UniProt Q9UHV7) | -0.215 | 0.325 | – | –
72 | MLYCD C360 (UniProt O95822) | -0.142 | 0.00544 | – | –
